PubChem BioAssay AID686937, Drosophila RNAi Screening Center – 2013

Screen: 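Genes whose loss weakens secretory pathway function in fly cells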 (primary screen)
Cells: Drosophila S2 cells expressing secreted horseradish peroxidase
Reagents: long dsRNA against Drosophila genes
Time to read-out: about 5.5 days (5 days dsRNA, then 12 h reporter induction)
Challenge: reporter expression induced after 5 days of dsRNA, read 12 h later; inducer not stated
Read-out: 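Chemiluminescent measurement of peroxidase in the medium 12 h after reporter induction, following 5 days of dsRNA, given as a z-score per plate; higher means more secretion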
Scale: z-score: higher = more reporter secreted into medium
The screen tested about 23,000 reagents; below is an unselected part of those that have a named target and a result. 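Reduced-secretion tags in replicate 1 do not always agree with the z-scores; no criterion for assigning the tags was given.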 Reagents against one gene are numbered here. A plus sign joins genes that one reagent is predicted to hit. Further read-outs or replicates are left out here. Not stated in the record: the amount of reagent.

With RpL17 (GeneID 31613), what does the deposit list?
z-score, replicate 1: -3.4; phenotype, replicate 1: reduced secretion

Which result is listed for Cpr72Ec (GeneID 39816)?
z-score, replicate 1: 0.4

What did the screen give for CG33502 + CG32857 + CG32500 #1?
z-score, replicate 1: -0.43

With CG33502 + CG32857 + CG32500 #2, how do the results read?
z-score, replicate 1: 0.12

With CG14694 (GeneID 41307), what does the deposit list?
z-score, replicate 1: 0.12

What is on record for wds (GeneID 53428)?
z-score, replicate 1: 0.16

How did the screen score DCTN5-p25 (GeneID 34873)?
z-score, replicate 1: 0.17

For CG14931 (GeneID 34588), what was measured?
z-score, replicate 1: 0.14

How did the screen score thoc6 (GeneID 39394)?
z-score, replicate 1: 0.03

How did the screen score Shrm (GeneID 36592) #1?
z-score, replicate 1: -0.02

Which result is listed for Shrm (GeneID 36592) #2?
z-score, replicate 1: 0.15

How did the screen score Shrm (GeneID 36592) #3?
z-score, replicate 1: 0.48

For Neos (GeneID 38795), what does the deposit list?
z-score, replicate 1: 0.74

How did the screen score glo (GeneID 41431)?
z-score, replicate 1: 0.29

Which result is listed for CG13566 (GeneID 37813)?
z-score, replicate 1: 0.2

With CG2162 (GeneID 38360), how do the results read?
z-score, replicate 1: 0.78
